From the supplement of paper PMC10849652
Some of the results follow. Residues, ends and D or L forms follow the SMILES beside them. *: point of attachment. Cbz = O=C(OCc1ccccc1)*

Sequences of proteins named here, by UniProt entry; tags and fusion partners are left off. A change or cut given only in a name is not applied to a line headed by its entry.
UniProt Q13098: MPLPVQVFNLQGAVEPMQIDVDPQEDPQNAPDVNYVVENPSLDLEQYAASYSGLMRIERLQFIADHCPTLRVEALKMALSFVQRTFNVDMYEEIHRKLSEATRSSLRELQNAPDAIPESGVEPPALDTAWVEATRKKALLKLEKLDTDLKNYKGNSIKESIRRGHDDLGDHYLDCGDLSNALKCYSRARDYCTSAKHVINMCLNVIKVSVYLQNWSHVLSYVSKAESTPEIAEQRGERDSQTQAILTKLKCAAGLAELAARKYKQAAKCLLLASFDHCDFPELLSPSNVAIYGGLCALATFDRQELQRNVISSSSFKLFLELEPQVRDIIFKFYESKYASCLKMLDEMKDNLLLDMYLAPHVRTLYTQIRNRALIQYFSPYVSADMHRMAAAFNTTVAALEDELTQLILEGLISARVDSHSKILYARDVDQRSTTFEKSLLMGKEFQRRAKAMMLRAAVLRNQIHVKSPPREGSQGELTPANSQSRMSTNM
UniProt Q9HCN4, whole entry, looked up: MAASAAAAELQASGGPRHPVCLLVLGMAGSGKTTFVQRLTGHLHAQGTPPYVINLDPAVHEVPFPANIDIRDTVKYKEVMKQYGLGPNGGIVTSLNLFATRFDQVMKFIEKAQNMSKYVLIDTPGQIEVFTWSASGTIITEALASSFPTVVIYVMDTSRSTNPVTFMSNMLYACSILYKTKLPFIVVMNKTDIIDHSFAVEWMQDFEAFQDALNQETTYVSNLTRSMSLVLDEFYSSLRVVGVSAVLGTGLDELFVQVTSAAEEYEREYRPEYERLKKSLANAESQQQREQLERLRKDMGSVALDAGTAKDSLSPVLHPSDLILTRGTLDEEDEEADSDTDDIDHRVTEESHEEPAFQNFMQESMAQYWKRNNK
UniProt O14908: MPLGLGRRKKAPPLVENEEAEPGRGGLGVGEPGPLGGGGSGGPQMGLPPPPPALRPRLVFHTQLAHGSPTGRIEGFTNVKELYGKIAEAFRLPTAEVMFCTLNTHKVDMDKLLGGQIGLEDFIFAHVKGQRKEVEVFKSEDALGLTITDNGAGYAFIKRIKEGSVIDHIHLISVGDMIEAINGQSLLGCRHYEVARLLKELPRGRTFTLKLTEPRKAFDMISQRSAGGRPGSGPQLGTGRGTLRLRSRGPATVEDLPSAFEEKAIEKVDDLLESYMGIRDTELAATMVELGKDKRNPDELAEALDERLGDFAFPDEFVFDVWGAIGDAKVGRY
UniProt Q9Y5P6: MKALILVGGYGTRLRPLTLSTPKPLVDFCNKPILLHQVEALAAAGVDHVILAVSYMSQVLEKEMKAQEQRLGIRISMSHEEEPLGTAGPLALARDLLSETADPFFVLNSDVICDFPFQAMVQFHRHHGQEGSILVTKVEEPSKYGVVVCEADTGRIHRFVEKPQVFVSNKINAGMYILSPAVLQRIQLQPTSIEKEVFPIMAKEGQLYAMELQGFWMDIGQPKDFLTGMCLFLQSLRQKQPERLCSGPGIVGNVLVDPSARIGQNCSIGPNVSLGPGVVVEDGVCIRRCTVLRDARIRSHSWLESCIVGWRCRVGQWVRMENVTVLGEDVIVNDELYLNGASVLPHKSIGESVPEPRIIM
UniProt P62993, whole entry, looked up: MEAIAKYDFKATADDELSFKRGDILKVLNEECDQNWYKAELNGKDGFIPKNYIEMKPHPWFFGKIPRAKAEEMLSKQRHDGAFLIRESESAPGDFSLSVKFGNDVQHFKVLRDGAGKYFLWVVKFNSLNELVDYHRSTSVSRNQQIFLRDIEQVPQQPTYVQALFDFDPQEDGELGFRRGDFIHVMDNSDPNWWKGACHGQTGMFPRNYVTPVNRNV
UniProt Q9HAV0, whole entry, looked up: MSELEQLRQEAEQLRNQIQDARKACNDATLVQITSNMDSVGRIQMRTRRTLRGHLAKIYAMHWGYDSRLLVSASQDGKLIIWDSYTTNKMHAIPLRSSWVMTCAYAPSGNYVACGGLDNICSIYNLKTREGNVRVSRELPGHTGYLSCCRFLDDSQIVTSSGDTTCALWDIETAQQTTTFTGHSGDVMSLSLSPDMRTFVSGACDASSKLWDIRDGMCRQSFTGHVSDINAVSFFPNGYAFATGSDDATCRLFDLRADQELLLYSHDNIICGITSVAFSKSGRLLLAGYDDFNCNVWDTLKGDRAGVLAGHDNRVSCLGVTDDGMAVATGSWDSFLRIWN
UniProt Q13439: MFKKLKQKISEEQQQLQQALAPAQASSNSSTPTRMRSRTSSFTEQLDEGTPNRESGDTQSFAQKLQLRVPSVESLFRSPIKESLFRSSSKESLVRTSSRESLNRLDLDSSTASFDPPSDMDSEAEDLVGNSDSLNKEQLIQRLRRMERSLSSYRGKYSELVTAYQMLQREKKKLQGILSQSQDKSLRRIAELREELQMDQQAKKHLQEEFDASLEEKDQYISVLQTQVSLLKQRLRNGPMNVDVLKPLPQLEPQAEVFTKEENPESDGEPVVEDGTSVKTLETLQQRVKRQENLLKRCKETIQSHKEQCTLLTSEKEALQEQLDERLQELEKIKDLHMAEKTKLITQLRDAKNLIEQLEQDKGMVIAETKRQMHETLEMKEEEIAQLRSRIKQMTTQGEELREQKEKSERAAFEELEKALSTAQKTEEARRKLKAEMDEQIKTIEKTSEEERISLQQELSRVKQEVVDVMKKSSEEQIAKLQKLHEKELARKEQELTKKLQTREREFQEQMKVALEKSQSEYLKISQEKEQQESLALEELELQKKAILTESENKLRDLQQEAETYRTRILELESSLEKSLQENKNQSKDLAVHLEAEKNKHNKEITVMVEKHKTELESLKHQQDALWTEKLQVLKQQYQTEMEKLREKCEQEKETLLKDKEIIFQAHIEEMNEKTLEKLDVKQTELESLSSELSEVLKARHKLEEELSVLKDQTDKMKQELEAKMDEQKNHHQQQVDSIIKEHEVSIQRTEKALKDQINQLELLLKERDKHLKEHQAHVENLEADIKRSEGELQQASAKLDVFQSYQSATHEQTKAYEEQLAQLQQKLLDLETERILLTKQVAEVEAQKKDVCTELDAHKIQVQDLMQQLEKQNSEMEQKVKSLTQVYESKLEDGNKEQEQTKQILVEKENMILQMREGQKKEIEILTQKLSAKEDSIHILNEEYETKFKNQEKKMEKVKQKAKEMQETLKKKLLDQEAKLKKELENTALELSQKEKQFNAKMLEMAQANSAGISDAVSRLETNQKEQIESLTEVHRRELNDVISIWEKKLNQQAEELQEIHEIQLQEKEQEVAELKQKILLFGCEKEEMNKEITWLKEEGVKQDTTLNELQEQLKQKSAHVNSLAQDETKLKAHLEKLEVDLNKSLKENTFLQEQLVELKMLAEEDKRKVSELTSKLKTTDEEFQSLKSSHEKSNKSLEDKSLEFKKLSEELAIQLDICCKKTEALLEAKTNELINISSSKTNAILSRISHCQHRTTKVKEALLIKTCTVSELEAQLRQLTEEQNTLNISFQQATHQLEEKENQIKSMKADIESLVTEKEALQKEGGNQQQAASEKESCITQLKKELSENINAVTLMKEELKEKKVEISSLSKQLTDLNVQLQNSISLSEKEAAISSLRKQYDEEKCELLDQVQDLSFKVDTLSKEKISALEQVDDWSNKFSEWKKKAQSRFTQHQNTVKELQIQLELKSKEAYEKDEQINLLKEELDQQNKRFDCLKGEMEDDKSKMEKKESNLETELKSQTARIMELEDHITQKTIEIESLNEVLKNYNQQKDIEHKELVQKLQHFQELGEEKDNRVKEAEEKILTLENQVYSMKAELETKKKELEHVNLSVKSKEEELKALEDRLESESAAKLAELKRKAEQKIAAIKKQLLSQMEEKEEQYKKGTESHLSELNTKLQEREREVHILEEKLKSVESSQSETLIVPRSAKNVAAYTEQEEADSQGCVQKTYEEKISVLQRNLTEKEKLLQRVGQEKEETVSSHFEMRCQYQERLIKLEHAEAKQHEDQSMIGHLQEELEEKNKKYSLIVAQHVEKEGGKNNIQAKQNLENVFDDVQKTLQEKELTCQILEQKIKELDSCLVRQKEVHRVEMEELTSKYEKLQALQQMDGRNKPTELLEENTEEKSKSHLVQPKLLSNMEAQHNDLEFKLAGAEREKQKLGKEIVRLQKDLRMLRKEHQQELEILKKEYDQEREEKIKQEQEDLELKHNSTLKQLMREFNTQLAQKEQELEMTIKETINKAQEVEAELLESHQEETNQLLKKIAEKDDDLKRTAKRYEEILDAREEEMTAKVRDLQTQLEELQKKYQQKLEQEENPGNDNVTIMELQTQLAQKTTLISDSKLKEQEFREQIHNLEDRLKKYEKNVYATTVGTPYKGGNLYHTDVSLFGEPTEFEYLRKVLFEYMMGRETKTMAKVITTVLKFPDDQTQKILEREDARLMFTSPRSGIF
UniProt Q9P2T1: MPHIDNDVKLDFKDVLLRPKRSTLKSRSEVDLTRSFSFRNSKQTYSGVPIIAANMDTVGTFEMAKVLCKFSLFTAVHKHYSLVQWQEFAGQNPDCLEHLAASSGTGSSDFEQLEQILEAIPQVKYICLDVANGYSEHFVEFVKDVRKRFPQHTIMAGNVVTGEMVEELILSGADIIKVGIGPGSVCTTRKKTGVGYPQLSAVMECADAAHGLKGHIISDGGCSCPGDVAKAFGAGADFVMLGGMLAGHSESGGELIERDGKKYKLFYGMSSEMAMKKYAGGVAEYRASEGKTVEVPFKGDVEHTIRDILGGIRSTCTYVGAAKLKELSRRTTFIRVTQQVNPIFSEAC
UniProt Q9UHW5, whole entry, looked up: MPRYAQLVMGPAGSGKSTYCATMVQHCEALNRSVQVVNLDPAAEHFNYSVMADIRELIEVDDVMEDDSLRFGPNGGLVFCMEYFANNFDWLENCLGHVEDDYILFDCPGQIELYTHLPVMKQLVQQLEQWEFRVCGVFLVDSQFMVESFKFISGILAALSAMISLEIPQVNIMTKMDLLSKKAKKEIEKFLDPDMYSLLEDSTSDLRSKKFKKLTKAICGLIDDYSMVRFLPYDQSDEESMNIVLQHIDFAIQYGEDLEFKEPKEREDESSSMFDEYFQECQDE
UniProt O75496: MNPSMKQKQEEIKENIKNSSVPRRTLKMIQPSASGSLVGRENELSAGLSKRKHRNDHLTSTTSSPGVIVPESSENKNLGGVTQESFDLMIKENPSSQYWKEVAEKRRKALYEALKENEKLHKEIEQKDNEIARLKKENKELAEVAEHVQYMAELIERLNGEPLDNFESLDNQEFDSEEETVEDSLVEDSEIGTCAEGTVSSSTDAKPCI
UniProt P62873, whole entry, looked up: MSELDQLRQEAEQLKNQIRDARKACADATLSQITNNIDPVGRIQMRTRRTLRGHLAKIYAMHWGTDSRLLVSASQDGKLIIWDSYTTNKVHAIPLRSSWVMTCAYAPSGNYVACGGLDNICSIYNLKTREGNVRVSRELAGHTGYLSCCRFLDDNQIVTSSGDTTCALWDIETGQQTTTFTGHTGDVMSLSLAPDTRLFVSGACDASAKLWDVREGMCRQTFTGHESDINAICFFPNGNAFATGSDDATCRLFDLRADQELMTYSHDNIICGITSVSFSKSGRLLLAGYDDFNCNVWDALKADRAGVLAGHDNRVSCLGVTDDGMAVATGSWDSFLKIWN
UniProt P29992, whole entry, looked up: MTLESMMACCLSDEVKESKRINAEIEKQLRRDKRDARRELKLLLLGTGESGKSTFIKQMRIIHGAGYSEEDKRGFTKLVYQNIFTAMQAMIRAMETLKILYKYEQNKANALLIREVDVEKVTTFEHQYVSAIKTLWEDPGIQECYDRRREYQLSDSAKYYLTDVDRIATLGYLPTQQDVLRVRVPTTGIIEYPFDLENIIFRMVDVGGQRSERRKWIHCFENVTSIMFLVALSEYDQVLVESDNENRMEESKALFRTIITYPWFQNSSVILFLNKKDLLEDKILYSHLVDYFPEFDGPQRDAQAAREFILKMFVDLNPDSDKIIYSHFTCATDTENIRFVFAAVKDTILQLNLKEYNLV
UniProt P00505: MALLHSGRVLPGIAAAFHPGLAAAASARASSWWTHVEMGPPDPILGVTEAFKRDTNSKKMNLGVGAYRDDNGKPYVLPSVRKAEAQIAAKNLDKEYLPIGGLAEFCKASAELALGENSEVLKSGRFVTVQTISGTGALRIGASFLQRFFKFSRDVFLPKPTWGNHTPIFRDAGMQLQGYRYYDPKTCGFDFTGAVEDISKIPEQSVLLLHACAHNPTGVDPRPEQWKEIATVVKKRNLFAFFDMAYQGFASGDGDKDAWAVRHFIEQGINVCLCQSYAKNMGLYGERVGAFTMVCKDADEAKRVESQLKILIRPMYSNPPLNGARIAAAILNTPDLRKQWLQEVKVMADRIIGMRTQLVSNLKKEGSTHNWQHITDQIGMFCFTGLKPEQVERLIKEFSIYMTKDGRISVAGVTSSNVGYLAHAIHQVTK
UniProt O95249: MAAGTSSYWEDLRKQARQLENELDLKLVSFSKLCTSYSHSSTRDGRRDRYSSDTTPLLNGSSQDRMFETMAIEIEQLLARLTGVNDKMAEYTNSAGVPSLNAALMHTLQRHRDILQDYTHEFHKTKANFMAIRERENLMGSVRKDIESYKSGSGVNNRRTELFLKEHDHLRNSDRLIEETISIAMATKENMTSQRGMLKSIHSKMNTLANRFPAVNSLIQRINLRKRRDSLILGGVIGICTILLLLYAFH

Experiments:
Test in all cases: log2 fold change, soluble protein after heating vs DMSO (PISA); higher = thermal stabilisation; K562 cells, 10 uM, 30 min; active = over 0.2 and 3.5 SD of the protein, either way, in both replicates (recomputed)
erlotinib = compound: C#Cc1cccc(Nc2ncnc3cc(OCCOC)c(OCCOC)cc23)c1 [erlotinib]
Method in brief: (§1)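 K562 cells at 2×10^6 cells/mL were treated with 10 μM compound for 30 min. Aliquots were heated for 3 min across 48°C-58°C, pooled, and extracted in PBS with 0.5% NP-40 at 4°C; soluble protein was the supernatant after 21,000xg for 90 min. Soluble protein was quantified by TMTpro 16plex LC-MS/MS with channel sums equalised, and reported as log2 fold change in thermal stability against DMSO controls, with values from duplicates.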

[1] = compound: C/C(=N\NC(=O)C1=CC(=CC=C1)S(=O)(=O)N2CCOCC2)/C3=C(C=CC(=C3)Cl)O
Method in brief: as §1

[2] = compound: C1=CC(=C(C=C1Cl)C2=NC3=NC=CN=C3C(=N2)NC4=CC=NC=C4)F
Method in brief: as §1

[3] = compound: C1=CC(=CC=C1C2=NC3=C(N2)C=C(C=C3)C(=O)N)OC4=CC=C(C=C4)Cl
Method in brief: as §1

[4] = compound: C1=CC2=C(C=CC(=C2)/C=C\3/C(=O)NC(=NCC4=CC=CS4)S3)N=C1
Method in brief: as §1

[5] = compound: C1=CC2=NC=CN=C2C=C1/C=C/3\C(=O)NC(=O)S3
Method in brief: as §1

[6] = compound: C1=CC=C(C=C1)C2=NC(=C(N2)C3=CC=NC=C3)C4=CC(=C(C=C4)Cl)O
Method in brief: as §1

[7] = compound: C1=CC=C2C(=C1)C3=NNC4=CC=CC(=C43)C2=O
Method in brief: as §1

[8] = compound: C1CCN(C1)C(=O)NC2=CC=CC(=C2)NC3=NC=C(C(=N3)NCCC4=CN=CN4)Br
Method in brief: as §1

[9] = compound: C1CN(CCC1(CC2=CC=C(C=C2)Cl)N)C3=NC=NC4=C3C=CN4
Method in brief: as §1

IRAK-1-4 Inhibitor I = compound: C1COCCN1CCN2C3=CC=CC=C3N=C2NC(=O)C4=CC(=CC=C4)[N+](=O)[O-] [IRAK-1-4 Inhibitor I]
Method in brief: as §1

ibrutinib = compound: C=CC(=O)N1CCC[C@@H](n2nc(-c3ccc(Oc4ccccc4)cc3)c3c(N)ncnc32)C1 [ibrutinib]
Method in brief: as §1

[10] = compound: CC(=O)c1cnc2ccc(-c3cc(Cl)c(O)c(Cl)c3)nc2c1N[C@H]1CC[C@H](CN(C)C)CC1
Method in brief: as §1

ralimetinib = compound: CC(C)(C)Cn1c(N)nc2ccc(-c3[nH]c(C(C)(C)C)nc3-c3ccc(F)cc3)nc21 [ralimetinib]
Method in brief: as §1

[11] = compound: CC(C)(O)CC(=O)NCCn1ccc2ncnc(Nc3ccc(Oc4cccc(C(F)(F)F)c4)c(Cl)c3)c21
Method in brief: as §1

[12] = compound: CC(C)C1=C2N=C(C=C(N2N=C1)NCC3=CC=CC=C3)NCCCCCCN
Method in brief: as §1

[13] = compound: CC(C)C[C@@H](C=O)NC(=O)[C@H](CC(C)C)NC(=O)[C@H](CC(C)C)NC(=O)OCc1ccccc1
Method in brief: as §1

pinometostat = compound: CC(C)N(C[C@H]1O[C@@H](n2cnc3c(N)ncnc32)[C@H](O)[C@@H]1O)[C@H]1C[C@@H](CCc2nc3cc(C(C)(C)C)ccc3[nH]2)C1 [pinometostat]
Method in brief: as §1

[14] = compound: CC1=C(C(CC(=O)N1)C2=CC=C(C=C2)C(F)(F)F)C(=O)NC3=C(C=C4C(=C3)C=NN4)F
Method in brief: as §1

[15] = compound: CC1=C(C2=C(C=C1)C(=O)C3=CC=CC=C3N2CCCN)C
Method in brief: as §1

Measured: log2 fold change

GPS1 isoform 7 (UniProt Q13098)
inactive: erlotinib -0.013 | [1] 0.033 | [2] 0 | [3] -0.013 | [4] -0.007 | [5] 0.007 | [6] -0.007 | [7] 0.021 | [8] -0.018 | [9] 0.011 | IRAK-1-4 Inhibitor I 0.024 | ibrutinib -0.004 | [10] -0.036 | ralimetinib 0.002 | [11] 0.02 | [12] 0.005 | [13] -0.059 | pinometostat -0.057 | [14] 0.006 | [15] -0.082

GPN1 isoform 5 (UniProt Q9HCN4)
inactive: erlotinib -0.031 | [1] 0.019 | [2] 0.033 | [3] 0.025 | [4] 0.031 | [5] -0.032 | [6] -0.005 | [7] 0.019 | [8] -0.051 | [9] 0.03 | IRAK-1-4 Inhibitor I 0.019 | ibrutinib 0.04 | [10] -0.024 | ralimetinib 0.026 | [11] 0.043 | [12] 0.027 | [13] 0.023 | pinometostat -0.031 | [14] 0.036 | [15] 0.076

GIPC1 (UniProt O14908)
inactive: erlotinib 0.055 | [1] 0.035 | [2] -0.013 | [3] -0.038 | [4] 0.068 | [5] -0.054 | [6] 0.012 | [7] -0.014 | [8] -0.005 | [9] -0.095 | IRAK-1-4 Inhibitor I 0 | ibrutinib 0.035 | [10] 0.033 | ralimetinib 0.027 | [11] -0.104 | [12] -0.049 | [13] 0.006 | pinometostat 0.026 | [14] -0.074 | [15] -0.02

GPR89A (UniProt B7ZAQ6)
inactive: erlotinib -0.147 | [1] 0.048 | [2] 0.088 | [3] 0.058 | [4] 0.02 | [5] 0.012 | [6] -0.018 | [7] -0.036 | [8] -0.071 | [9] 0.02 | IRAK-1-4 Inhibitor I -0.023 | ibrutinib 0.048 | [10] 0.009 | ralimetinib -0.014 | [11] -0.045 | [12] 0.011 | [13] 0.005 | pinometostat -0.041 | [14] -0.006 | [15] 0.014

GMPPB isoform 2 (UniProt Q9Y5P6)
inactive: erlotinib 0.045 | [1] 0.01 | [2] 0.018 | [3] 0.001 | [4] 0.041 | [5] -0.035 | [6] 0.022 | [7] 0.003 | [8] -0.014 | [9] 0.033 | IRAK-1-4 Inhibitor I -0.038 | ibrutinib 0.003 | [10] -0.046 | ralimetinib -0.014 | [11] -0.107 | [12] 0.036 | [13] 0.011 | pinometostat -0.105 | [14] -0.041 | [15] 0.105

GRB2 (UniProt P62993)
inactive: erlotinib -0.03 | [1] 0 | [2] 0.053 | [3] 0.004 | [4] 0.014 | [5] 0.054 | [6] -0.013 | [7] 0.023 | [8] 0.029 | [9] 0.007 | IRAK-1-4 Inhibitor I 0.016 | ibrutinib -0.026 | [10] 0.024 | ralimetinib -0.038 | [11] -0.012 | [12] -0.028 | [13] -0.002 | pinometostat -0.027 | [14] -0.022 | [15] -0.045

GNB4 (UniProt Q9HAV0)
inactive: erlotinib 0.008 | [1] 0.028 | [2] -0.105 | [3] 0.008 | [4] -0.24 | [5] -0.016 | [6] 0.003 | [7] -0.087 | [8] -0.106 | [9] 0.026 | IRAK-1-4 Inhibitor I 0.066 | ibrutinib 0.209 | [10] 0.061 | ralimetinib 0.028 | [11] -0.008 | [12] 0.094 | [13] -0.025 | pinometostat 0.036 | [14] 0.04 | [15] -0.014

GOLGA4 isoform 5 (UniProt Q13439)
inactive: erlotinib 0.275 | [1] -0.04 | [2] -0.117 | [3] -0.031 | [4] 0.161 | [5] 0.003 | [6] -0.075 | [7] 0.002 | [8] 0.045 | [9] -0.114 | IRAK-1-4 Inhibitor I -0.003 | ibrutinib -0.08 | [10] -0.124 | ralimetinib -0.067 | [11] 0.013 | [12] -0.073 | [13] 0.13 | pinometostat 0.018 | [14] 0.169 | [15] -0.025

GMPR2 isoform 2 (UniProt Q9P2T1)
inactive: erlotinib 0.015 | [1] -0.003 | [2] 0.057 | [3] 0.009 | [4] 0.011 | [5] 0.033 | [6] -0.006 | [7] -0.039 | [8] -0.032 | [9] 0.038 | IRAK-1-4 Inhibitor I 0.008 | ibrutinib 0.022 | [10] 0.043 | ralimetinib -0.005 | [11] 0.001 | [12] 0.081 | [13] -0.029 | pinometostat -0.049 | [14] 0.009 | [15] 0.001

GPN3 isoform 2 (UniProt Q9UHW5)
inactive: erlotinib 0.022 | [1] 0.009 | [2] 0.022 | [3] -0.039 | [4] -0.135 | [5] 0.011 | [6] -0.011 | [7] 0.002 | [8] 0.027 | [9] 0.119 | IRAK-1-4 Inhibitor I 0 | ibrutinib -0.036 | [10] 0.002 | ralimetinib 0.061 | [11] 0.026 | [12] 0.037 | [13] -0.069 | pinometostat -0.04 | [14] 0.034 | [15] -0.009

GMNN (UniProt O75496)
inactive: erlotinib -0.022 | [1] 0.013 | [2] 0.037 | [3] 0.01 | [4] -0.024 | [5] 0.016 | [6] -0.08 | [7] -0.011 | [8] -0.001 | [9] -0.001 | IRAK-1-4 Inhibitor I 0.01 | ibrutinib 0.062 | [10] 0.006 | ralimetinib -0.051 | [11] -0.01 | [12] 0.114 | [13] 0.057 | pinometostat -0.063 | [14] 0.01 | [15] -0.009

Copied from the results shown (two entries):
GNB4 (UniProt Q9HAV0)
inactive: erlotinib 0.008 | [1] 0.028 | [2] -0.105 | [3] 0.008 | [4] -0.24 | [5] -0.016 | [6] 0.003 | [7] -0.087 | [8] -0.106 | [9] 0.026 | IRAK-1-4 Inhibitor I 0.066 | ibrutinib 0.209 | [10] 0.061 | ralimetinib 0.028 | [11] -0.008 | [12] 0.094 | [13] -0.025 | pinometostat 0.036 | [14] 0.04 | [15] -0.014

GOLGA4 isoform 5 (UniProt Q13439)
inactive: erlotinib 0.275 | [1] -0.04 | [2] -0.117 | [3] -0.031 | [4] 0.161 | [5] 0.003 | [6] -0.075 | [7] 0.002 | [8] 0.045 | [9] -0.114 | IRAK-1-4 Inhibitor I -0.003 | ibrutinib -0.08 | [10] -0.124 | ralimetinib -0.067 | [11] 0.013 | [12] -0.073 | [13] 0.13 | pinometostat 0.018 | [14] 0.169 | [15] -0.025

Remaining list, next part:

GK (UniProt P32189)
inactive: erlotinib -0.015 | [1] -0.031 | [2] 0.037 | [3] -0.001 | [4] -0.002 | [5] 0.032 | [6] 0.012 | [7] 0 | [8] 0.007 | [9] 0.034 | IRAK-1-4 Inhibitor I 0.015 | ibrutinib 0.043 | [10] 0.021 | ralimetinib -0.029 | [11] 0.021 | [12] 0.031 | [13] -0.022 | pinometostat -0.021 | [14] -0.018 | [15] 0.009

GNB1 (UniProt P62873)
inactive: erlotinib -0.055 | [1] 0.043 | [2] -0.016 | [3] 0.058 | [4] -0.021 | [5] -0.018 | [6] 0.007 | [7] -0.06 | [8] -0.088 | [9] -0.031 | IRAK-1-4 Inhibitor I 0.018 | ibrutinib 0.045 | [10] 0.024 | ralimetinib -0.017 | [11] 0.013 | [12] 0.171 | [13] -0.009 | pinometostat -0.028 | [14] -0.023 | [15] 0.042

GNA11 (UniProt P29992)
inactive: erlotinib 0.002 | [1] 0.058 | [2] 0 | [3] 0.046 | [4] 0.003 | [5] 0.006 | [6] 0.024 | [7] -0.032 | [8] -0.044 | [9] 0.037 | IRAK-1-4 Inhibitor I -0.073 | ibrutinib -0.001 | [10] -0.074 | ralimetinib -0.039 | [11] 0.06 | [12] 0.111 | [13] -0.012 | pinometostat -0.007 | [14] -0.087 | [15] 0.106

GOT2 (UniProt P00505)
inactive: erlotinib -0.019 | [1] -0.012 | [2] 0.02 | [3] 0.011 | [4] -0.017 | [5] -0.017 | [6] 0.004 | [7] 0.002 | [8] -0.005 | [9] 0.024 | IRAK-1-4 Inhibitor I 0.029 | ibrutinib 0.005 | [10] -0.005 | ralimetinib -0.035 | [11] 0.019 | [12] 0.076 | [13] -0.018 | pinometostat -0.065 | [14] 0.006 | [15] 0.001

GOSR1 (UniProt O95249)
inactive: erlotinib 0.015 | [1] 0.068 | [2] 0.007 | [3] 0.03 | [4] -0.042 | [5] 0.068 | [6] 0.017 | [7] -0.025 | [8] 0.039 | [9] -0.068 | IRAK-1-4 Inhibitor I -0.001 | ibrutinib 0 | [10] -0.024 | ralimetinib -0.03 | [11] -0.058 | [12] -0.109 | [13] 0.009 | pinometostat -0.013 | [14] 0.02 | [15] -0.022
